Test results: US20210301003A1 (Eli Lilly, published 2021)
No constants are given. Whether binding was seen depends on the method and setting. Some binding calls cover weakened binding; strength is not graded here.

Chains of the proteins cited; added tags and fusions are not shown. Lines headed by an entry give the natural chain unless they say otherwise; changes in a name come on top. A line that says so, or that is headed by a name, gives the form on record, which may keep a tag or linker.
aggregated tau in FFPE brain sections of a PD (Pick's disease) patient (P10636, form named): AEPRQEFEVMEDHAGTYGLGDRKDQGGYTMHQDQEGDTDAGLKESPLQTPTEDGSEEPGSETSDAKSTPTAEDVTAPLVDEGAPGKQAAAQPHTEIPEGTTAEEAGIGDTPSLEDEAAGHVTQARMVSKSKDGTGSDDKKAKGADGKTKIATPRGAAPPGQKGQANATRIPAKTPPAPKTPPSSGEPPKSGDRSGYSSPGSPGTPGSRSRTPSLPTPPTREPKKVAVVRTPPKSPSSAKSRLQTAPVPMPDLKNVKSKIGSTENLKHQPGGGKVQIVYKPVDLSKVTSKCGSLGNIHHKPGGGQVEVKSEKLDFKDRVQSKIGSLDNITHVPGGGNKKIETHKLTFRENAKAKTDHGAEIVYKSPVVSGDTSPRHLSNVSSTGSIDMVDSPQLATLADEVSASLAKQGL
tau fibrils purified from AD brain homogenates (P10636, form named): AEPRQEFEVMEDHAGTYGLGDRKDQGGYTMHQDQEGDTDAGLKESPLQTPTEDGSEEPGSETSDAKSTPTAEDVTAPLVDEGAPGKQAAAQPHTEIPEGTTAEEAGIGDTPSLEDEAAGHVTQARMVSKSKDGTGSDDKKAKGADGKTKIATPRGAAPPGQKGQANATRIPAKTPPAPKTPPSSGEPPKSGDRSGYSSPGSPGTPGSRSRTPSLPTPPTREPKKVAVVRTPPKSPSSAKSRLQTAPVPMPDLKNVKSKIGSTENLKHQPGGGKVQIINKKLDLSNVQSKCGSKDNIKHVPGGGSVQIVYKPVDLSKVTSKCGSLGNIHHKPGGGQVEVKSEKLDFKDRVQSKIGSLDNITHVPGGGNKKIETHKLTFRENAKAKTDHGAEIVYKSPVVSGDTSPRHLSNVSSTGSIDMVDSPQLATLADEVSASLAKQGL

Columns and labels:
[1] = biological target: aggregated tau in FFPE brain sections of a PD (Pick's disease) patient (human) (UniProt P10636); assay: immunohistochemistry on FFPE brain sections, semi-quantitative score (severe, +++)
[2] = biological target: aggregated tau in FFPE brain sections of an AD patient (human) (UniProt P10636); assay: as above
[3] = biological target: aggregated tau in FFPE brain sections of a normal individual (minimal tau aggregation) (human) (UniProt P10636); assay: immunohistochemistry on FFPE brain sections, semi-quantitative score (mild, +)
[4] = biological target: aggregated tau in FFPE brain sections of a PD (Pick's disease) patient (human) (UniProt P10636); assay: immunohistochemistry on FFPE brain sections
[5] = biological target: aggregated tau in FFPE brain sections of an AD patient (human) (UniProt P10636); assay: immunohistochemistry on FFPE brain sections
[6] = biological target: tau fibrils purified from AD brain homogenates (human) (UniProt P10636); assay: ELISA on plates coated with tau fibrils purified from AD brain

binding [1]: binds
binding [2]: binds
binding [3]: binds
binding [4]: binds
binding [5]: binds
binding [6]: binds
B1: Exemplified anti-Tau antibody (having both HCs of SEQ ID NO. 68 and both LCs of SEQ ID NO. 67) (antibody, human IgG4 S228P, kappa, F234A L235A, V domains shown)
VH: EVQLVQSGAEVKKPGESLKISCKGSGYTFSNYWIEWVRQMPGKGLEWMGEILPGSDSIKYEKNFKGQVTISADKSISTAYLQWSSLKASDTAMYYCARRGNYVDDWGQGTLVTVSS
VL: EIVLTQSPGTLSLSPGERATLSCRSSQSLVHSNQNTYLHWYQQKPGQAPRLLIYKVDNRFSGIPDRFSGSGSGTDFTLTISRLEPEDFAVYYCSQSTLVPLTFGGGTKVEIKR
